Measured values: the supplement of paper PMC10849652
This is one part of the list. Residues, ends and D or L forms follow the SMILES beside them. *: point of attachment. Cbz = O=C(OCc1ccccc1)*

Chains of the proteins cited; added tags and fusions are not shown. Lines headed by an entry give the natural chain unless they say otherwise; changes in a name come on top.
UniProt Q9BRQ6: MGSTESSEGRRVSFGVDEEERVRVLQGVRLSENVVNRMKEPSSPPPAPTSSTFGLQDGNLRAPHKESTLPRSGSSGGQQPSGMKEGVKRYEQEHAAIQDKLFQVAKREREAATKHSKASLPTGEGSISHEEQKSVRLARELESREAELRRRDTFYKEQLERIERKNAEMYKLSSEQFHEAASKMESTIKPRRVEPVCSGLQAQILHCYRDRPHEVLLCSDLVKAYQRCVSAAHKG
UniProt Q96FF9: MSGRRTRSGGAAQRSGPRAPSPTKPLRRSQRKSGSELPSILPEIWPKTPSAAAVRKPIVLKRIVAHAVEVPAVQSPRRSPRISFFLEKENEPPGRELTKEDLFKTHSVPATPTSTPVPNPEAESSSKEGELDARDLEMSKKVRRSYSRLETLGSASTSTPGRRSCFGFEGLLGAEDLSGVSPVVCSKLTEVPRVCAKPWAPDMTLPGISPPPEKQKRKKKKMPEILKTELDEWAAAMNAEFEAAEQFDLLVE
UniProt Q9Y259: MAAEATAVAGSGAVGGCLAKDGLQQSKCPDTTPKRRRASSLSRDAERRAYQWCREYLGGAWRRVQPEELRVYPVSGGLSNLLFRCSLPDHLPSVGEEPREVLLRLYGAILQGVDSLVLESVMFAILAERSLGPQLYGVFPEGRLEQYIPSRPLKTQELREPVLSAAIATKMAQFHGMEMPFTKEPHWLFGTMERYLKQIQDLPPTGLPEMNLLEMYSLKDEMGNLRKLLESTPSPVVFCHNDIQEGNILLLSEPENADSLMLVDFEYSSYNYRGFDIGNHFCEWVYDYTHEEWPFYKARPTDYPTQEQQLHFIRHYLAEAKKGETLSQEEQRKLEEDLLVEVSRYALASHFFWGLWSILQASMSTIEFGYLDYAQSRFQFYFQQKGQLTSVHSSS
UniProt Q96JB5: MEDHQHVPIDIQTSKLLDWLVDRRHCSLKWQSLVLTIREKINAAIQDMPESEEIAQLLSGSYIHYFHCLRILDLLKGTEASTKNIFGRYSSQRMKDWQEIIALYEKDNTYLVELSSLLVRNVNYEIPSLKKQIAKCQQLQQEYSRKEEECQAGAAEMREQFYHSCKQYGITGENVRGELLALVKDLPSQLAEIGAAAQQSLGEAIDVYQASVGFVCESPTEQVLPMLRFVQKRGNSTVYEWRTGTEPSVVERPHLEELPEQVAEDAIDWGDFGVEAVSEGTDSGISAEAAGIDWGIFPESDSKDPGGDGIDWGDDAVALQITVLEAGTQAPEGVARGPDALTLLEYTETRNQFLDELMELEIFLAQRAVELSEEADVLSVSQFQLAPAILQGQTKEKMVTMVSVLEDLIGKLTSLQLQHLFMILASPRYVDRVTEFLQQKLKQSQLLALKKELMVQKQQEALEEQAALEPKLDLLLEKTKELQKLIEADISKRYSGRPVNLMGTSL
UniProt Q8TAP6: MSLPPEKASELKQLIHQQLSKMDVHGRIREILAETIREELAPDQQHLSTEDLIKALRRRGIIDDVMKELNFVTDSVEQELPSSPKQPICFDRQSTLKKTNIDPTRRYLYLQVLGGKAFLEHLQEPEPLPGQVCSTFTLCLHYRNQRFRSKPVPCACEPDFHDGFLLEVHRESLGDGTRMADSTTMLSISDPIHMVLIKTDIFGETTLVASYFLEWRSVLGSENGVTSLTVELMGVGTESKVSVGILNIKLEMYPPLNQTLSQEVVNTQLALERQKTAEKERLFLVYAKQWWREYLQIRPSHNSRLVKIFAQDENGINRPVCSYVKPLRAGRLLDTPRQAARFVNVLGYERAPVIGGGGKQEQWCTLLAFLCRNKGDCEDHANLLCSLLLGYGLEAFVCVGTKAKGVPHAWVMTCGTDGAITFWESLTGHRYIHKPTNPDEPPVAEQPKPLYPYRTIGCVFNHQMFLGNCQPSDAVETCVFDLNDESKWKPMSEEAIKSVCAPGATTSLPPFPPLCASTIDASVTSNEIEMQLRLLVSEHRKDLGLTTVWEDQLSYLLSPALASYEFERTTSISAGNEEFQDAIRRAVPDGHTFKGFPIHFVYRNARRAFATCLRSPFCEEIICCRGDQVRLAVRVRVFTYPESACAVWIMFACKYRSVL
UniProt Q96JM3: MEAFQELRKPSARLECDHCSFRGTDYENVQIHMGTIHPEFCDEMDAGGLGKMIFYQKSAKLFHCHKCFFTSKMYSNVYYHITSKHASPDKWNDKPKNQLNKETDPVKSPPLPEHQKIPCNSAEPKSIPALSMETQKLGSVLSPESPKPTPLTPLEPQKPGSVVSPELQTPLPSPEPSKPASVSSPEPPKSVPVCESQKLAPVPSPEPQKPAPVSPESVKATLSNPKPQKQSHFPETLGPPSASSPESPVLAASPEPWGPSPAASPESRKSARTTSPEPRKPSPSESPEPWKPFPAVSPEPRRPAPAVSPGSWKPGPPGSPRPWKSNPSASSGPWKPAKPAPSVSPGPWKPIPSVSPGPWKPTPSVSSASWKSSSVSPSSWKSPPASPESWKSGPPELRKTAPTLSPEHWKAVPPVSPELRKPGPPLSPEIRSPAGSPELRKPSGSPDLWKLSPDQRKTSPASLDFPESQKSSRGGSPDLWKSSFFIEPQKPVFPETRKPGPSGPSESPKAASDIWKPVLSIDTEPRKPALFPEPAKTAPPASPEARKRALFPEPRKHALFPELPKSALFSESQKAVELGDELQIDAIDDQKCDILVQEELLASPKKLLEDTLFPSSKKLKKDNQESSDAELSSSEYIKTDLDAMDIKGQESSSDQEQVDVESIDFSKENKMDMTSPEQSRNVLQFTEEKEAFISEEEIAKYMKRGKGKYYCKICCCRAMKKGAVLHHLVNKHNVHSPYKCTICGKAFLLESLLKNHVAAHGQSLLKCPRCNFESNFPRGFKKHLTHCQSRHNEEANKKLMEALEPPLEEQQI
UniProt Q9NZZ3: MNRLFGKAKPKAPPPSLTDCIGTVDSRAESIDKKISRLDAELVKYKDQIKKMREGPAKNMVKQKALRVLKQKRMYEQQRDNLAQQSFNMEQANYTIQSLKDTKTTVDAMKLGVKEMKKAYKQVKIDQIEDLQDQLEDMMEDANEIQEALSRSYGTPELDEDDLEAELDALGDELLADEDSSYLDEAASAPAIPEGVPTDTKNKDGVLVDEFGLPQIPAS
UniProt O95319: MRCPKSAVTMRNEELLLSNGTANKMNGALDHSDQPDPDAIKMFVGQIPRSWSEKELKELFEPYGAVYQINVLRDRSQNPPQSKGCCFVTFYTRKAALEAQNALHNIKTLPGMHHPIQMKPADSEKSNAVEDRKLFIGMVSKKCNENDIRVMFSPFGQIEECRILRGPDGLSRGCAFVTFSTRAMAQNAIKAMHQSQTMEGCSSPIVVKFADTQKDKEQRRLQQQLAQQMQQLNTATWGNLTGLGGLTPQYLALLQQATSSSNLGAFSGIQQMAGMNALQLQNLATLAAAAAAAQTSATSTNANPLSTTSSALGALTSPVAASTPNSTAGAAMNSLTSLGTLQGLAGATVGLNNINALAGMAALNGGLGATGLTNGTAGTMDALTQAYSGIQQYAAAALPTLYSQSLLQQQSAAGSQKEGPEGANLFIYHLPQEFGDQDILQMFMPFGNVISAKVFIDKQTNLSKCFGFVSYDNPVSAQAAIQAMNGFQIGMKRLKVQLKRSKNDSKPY
UniProt Q9C0F1: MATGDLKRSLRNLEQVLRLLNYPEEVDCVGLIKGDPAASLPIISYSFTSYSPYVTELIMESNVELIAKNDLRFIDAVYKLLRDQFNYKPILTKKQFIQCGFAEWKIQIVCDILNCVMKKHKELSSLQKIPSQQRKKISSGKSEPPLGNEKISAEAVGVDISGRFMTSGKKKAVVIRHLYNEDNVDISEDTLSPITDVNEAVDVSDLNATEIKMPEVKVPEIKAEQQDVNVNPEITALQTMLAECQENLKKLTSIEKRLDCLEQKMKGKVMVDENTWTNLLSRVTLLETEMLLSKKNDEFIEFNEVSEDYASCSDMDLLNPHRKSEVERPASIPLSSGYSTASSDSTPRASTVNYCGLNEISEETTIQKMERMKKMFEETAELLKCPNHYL
UniProt Q9NYV4, whole entry, looked up: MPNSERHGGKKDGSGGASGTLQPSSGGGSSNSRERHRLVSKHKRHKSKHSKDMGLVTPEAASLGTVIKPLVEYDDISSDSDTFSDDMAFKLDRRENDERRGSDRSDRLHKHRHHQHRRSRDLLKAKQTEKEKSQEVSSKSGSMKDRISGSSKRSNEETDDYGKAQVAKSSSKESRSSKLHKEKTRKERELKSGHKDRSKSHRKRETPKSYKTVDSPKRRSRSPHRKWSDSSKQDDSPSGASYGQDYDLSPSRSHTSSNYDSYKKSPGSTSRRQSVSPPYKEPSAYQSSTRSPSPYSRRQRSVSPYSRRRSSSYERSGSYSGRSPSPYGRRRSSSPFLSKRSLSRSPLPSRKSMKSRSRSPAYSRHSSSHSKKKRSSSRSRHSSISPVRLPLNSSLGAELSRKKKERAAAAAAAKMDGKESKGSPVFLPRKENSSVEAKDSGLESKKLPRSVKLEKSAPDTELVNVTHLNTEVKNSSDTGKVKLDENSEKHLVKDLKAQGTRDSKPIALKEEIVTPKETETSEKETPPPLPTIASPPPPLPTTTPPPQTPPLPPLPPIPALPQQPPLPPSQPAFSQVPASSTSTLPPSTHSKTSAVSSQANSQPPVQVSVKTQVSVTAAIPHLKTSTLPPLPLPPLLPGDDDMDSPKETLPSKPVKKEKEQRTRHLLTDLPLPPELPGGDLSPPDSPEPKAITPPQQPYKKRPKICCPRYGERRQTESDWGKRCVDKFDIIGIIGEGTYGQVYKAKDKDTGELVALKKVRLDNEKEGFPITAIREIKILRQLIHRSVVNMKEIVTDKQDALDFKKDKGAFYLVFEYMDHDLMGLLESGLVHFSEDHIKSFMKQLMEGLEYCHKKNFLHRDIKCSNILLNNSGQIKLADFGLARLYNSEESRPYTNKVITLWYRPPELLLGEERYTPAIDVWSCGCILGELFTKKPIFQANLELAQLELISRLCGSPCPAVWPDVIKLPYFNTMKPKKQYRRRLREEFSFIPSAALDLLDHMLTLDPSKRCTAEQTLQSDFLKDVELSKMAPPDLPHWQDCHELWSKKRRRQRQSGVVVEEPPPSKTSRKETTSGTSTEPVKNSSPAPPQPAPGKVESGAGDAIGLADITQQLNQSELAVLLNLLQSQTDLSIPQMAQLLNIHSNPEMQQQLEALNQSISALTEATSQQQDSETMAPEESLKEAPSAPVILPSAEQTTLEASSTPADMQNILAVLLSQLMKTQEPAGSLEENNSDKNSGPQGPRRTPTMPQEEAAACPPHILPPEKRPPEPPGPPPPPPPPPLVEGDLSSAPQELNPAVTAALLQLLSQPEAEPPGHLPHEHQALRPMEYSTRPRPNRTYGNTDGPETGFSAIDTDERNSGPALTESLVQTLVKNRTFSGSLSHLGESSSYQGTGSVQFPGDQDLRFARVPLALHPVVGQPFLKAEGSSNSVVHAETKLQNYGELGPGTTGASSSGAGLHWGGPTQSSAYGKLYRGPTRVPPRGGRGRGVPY
UniProt Q00534, whole entry, looked up: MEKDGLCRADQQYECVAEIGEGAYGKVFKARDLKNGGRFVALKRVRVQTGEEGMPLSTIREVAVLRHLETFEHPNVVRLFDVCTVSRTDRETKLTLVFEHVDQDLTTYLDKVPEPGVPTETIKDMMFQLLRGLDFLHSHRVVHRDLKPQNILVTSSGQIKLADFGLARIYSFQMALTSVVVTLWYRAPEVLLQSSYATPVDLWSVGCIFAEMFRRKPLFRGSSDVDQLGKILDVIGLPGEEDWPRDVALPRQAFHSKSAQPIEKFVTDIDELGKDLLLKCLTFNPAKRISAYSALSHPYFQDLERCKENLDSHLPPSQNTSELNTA
UniProt Q00535, whole entry, looked up: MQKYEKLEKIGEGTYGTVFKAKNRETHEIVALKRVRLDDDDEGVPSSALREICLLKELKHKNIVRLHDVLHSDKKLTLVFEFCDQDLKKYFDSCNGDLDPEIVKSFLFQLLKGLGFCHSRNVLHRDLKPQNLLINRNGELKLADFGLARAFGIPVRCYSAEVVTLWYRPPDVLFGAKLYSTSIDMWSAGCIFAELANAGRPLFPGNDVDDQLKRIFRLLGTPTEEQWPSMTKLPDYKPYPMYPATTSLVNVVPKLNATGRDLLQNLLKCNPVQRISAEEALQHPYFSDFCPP
UniProt Q96G23: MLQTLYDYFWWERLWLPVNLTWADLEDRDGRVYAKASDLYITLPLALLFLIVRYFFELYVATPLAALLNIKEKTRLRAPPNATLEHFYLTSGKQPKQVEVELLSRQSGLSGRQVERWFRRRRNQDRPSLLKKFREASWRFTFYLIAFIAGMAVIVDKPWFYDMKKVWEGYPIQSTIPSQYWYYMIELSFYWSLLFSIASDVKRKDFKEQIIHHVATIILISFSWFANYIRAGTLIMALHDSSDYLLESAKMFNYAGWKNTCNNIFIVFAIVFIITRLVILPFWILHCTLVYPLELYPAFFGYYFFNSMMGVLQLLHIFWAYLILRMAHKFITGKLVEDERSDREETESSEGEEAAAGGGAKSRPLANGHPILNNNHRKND

What was measured:
Experiment in all cases: log2 fold change, soluble protein after heating vs DMSO (PISA); higher = thermal stabilisation; K562 cells, 10 uM, 30 min; active = over 0.2 and 3.5 SD of the protein, either way, in both replicates (recomputed)
IRAK-1-4 Inhibitor I = compound: C1COCCN1CCN2C3=CC=CC=C3N=C2NC(=O)C4=CC(=CC=C4)[N+](=O)[O-] [IRAK-1-4 Inhibitor I]
How it was run: (§1)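 Soluble protein was defined as the supernatant after 21,000xg for 90 min. It came from K562 cells at 2×10^6 cells/mL given 10 μM compound for 30 min, heated in aliquots for 3 min across 48°C-58°C, pooled, and extracted in PBS with 0.5% NP-40 at 4°C, and was quantified by TMTpro 16plex LC-MS/MS with equalised channel sums. Thermal stability against control samples, from duplicates, is reported as log2 fold change.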

ibrutinib = compound: C=CC(=O)N1CCC[C@@H](n2nc(-c3ccc(Oc4ccccc4)cc3)c3c(N)ncnc32)C1 [ibrutinib]
How it was run: as §1

[1] = compound: CC(=O)c1cnc2ccc(-c3cc(Cl)c(O)c(Cl)c3)nc2c1N[C@H]1CC[C@H](CN(C)C)CC1
How it was run: as §1

ralimetinib = compound: CC(C)(C)Cn1c(N)nc2ccc(-c3[nH]c(C(C)(C)C)nc3-c3ccc(F)cc3)nc21 [ralimetinib]
How it was run: as §1

[2] = compound: CC(C)(O)CC(=O)NCCn1ccc2ncnc(Nc3ccc(Oc4cccc(C(F)(F)F)c4)c(Cl)c3)c21
How it was run: as §1

[3] = compound: CC(C)C1=C2N=C(C=C(N2N=C1)NCC3=CC=CC=C3)NCCCCCCN
How it was run: as §1

[4] = compound: CC(C)C[C@@H](C=O)NC(=O)[C@H](CC(C)C)NC(=O)[C@H](CC(C)C)NC(=O)OCc1ccccc1
How it was run: as §1

pinometostat = compound: CC(C)N(C[C@H]1O[C@@H](n2cnc3c(N)ncnc32)[C@H](O)[C@@H]1O)[C@H]1C[C@@H](CCc2nc3cc(C(C)(C)C)ccc3[nH]2)C1 [pinometostat]
How it was run: as §1

[5] = compound: CC1=C(C(CC(=O)N1)C2=CC=C(C=C2)C(F)(F)F)C(=O)NC3=C(C=C4C(=C3)C=NN4)F
How it was run: as §1

[6] = compound: CC1=C(C2=C(C=C1)C(=O)C3=CC=CC=C3N2CCCN)C
How it was run: as §1

Measured: log2 fold change

CHCHD6 (UniProt Q9BRQ6)
inactive: IRAK-1-4 Inhibitor I 0.008 | ibrutinib 0.2 | [1] -0.059 | ralimetinib -0.27 | [2] 0.001 | [3] 0.003 | [4] 0.002 | pinometostat 0.008 | [5] 0.062 | [6] -0.08

CFDP1 (UniProt Q9UEE9)
inactive: IRAK-1-4 Inhibitor I 0.002 | ibrutinib 0.022 | [1] 0.03 | ralimetinib -0.134 | [2] 0.014 | [3] 0.082 | [4] -0.001 | pinometostat -0.001 | [5] 0.025 | [6] 0.003

CDCA3 (UniProt Q99618)
inactive: IRAK-1-4 Inhibitor I 0.066 | ibrutinib 0.009 | [1] 0.014 | ralimetinib -0.11 | [2] -0.042 | [3] 0.058 | [4] 0.02 | pinometostat -0.053 | [5] 0.01 | [6] 0.009

CENPH (UniProt Q9H3R5)
inactive: IRAK-1-4 Inhibitor I -0.107 | ibrutinib -0.116 | [1] 0.016 | ralimetinib 0.022 | [2] -0.072 | [3] -0.08 | [4] 0.102 | pinometostat 0.147 | [5] -0.101 | [6] -0.047

CDCA5 (UniProt Q96FF9)
inactive: IRAK-1-4 Inhibitor I 0.256 | ibrutinib 0.01 | [1] -0.141 | ralimetinib 0.016 | [2] 0.089 | [3] -0.092 | [4] 0.079 | pinometostat -0.147 | [5] 0.045 | [6] 0.05

CHKB (UniProt Q9Y259)
inactive: IRAK-1-4 Inhibitor I 0.015 | ibrutinib 0.173 | [1] 0.021 | ralimetinib 0.081 | [2] -0.215 | [3] 0.02 | [4] 0.015 | pinometostat -0.002 | [5] 0.066 | [6] 0.049

CFH (UniProt P08603)
inactive: IRAK-1-4 Inhibitor I 0 | ibrutinib 0.038 | [1] -0.052 | ralimetinib 0.029 | [2] 0.198 | [3] 0.09 | [4] 0.059 | pinometostat 0.021 | [5] -0.064 | [6] -0.082

CDK4 (UniProt P11802)
active: [1] 0.685
inactive: IRAK-1-4 Inhibitor I 0.001 | ibrutinib -0.004 | ralimetinib 0.054 | [2] -0.098 | [3] -0.333 | [4] 0.105 | pinometostat 0.081

CHID1 (UniProt Q9BWS9)
inactive: IRAK-1-4 Inhibitor I -0.078 | ibrutinib -0.044 | [1] 0.092 | ralimetinib 0.107 | [2] 0.006 | [3] -0.045 | [4] 0.011 | pinometostat 0.072 | [5] 0.055 | [6] -0.023

CEBPB (UniProt P17676)
inactive: IRAK-1-4 Inhibitor I 0.053 | ibrutinib 0.085 | [1] 0.089 | ralimetinib 0.047 | [2] 0.119 | [3] 0.098 | [4] 0.139 | pinometostat 0.075 | [5] 0.015 | [6] -0.097

CETN2 (UniProt P41208)
inactive: IRAK-1-4 Inhibitor I -0.067 | ibrutinib 0.006 | [1] -0.019 | ralimetinib -0.012 | [2] 0.074 | [3] 0.17 | [4] 0.043 | pinometostat 0.011 | [6] -0.045

Reprinted at random: 2 entries already listed, in no set order.
CHID1 (UniProt Q9BWS9)
inactive: IRAK-1-4 Inhibitor I -0.078 | ibrutinib -0.044 | [1] 0.092 | ralimetinib 0.107 | [2] 0.006 | [3] -0.045 | [4] 0.011 | pinometostat 0.072 | [5] 0.055 | [6] -0.023

CEBPB (UniProt P17676)
inactive: IRAK-1-4 Inhibitor I 0.053 | ibrutinib 0.085 | [1] 0.089 | ralimetinib 0.047 | [2] 0.119 | [3] 0.098 | [4] 0.139 | pinometostat 0.075 | [5] 0.015 | [6] -0.097

(cont.)

CHMP4A isoform 2 (UniProt Q9BY43)
inactive: IRAK-1-4 Inhibitor I 0.019 | ibrutinib -0.017 | [1] -0.028 | ralimetinib -0.071 | [2] -0.046 | [3] 0.011 | [4] 0.023 | pinometostat -0.04 | [5] 0.016 | [6] -0.003

CDK5RAP3 isoform 4 (UniProt Q96JB5)
inactive: IRAK-1-4 Inhibitor I -0.051 | ibrutinib -0.068 | [1] -0.005 | ralimetinib -0.015 | [2] -0.062 | [3] -0.056 | [4] -0.002 | pinometostat 0.017 | [6] 0.009

CHEK1 (UniProt O14757)
inactive: IRAK-1-4 Inhibitor I -0.018 | ibrutinib -0.014 | [1] 0 | ralimetinib -0.076 | [2] -0.055 | [3] 0.003 | [4] 0.056 | pinometostat 0.018 | [6] -0.029

CFAP20 (UniProt Q9Y6A4)
inactive: IRAK-1-4 Inhibitor I -0.085 | ibrutinib 0.002 | [1] -0.011 | ralimetinib 0.039 | [2] 0.05 | [3] -0.055 | [4] 0.091 | pinometostat 0.208 | [5] -0.025 | [6] -0.171

CHKA (UniProt P35790)
inactive: IRAK-1-4 Inhibitor I -0.034 | ibrutinib 0 | [1] 0.085 | ralimetinib 0.006 | [2] 0.057 | [3] 0.113 | [4] 0.019 | pinometostat 0.088 | [6] 0.079

CEP76 (UniProt Q8TAP6)
inactive: IRAK-1-4 Inhibitor I -0.003 | ibrutinib 0.025 | [1] -0.046 | ralimetinib -0.027 | [2] 0.06 | [3] 0.019 | [4] 0.022 | pinometostat -0.027 | [5] 0.052 | [6] -0.024

CHCHD1 (UniProt Q96BP2)
inactive: IRAK-1-4 Inhibitor I -0.071 | ibrutinib 0.119 | [1] -0.009 | ralimetinib -0.117 | [2] 0.026 | [3] -0.027 | [4] 0.037 | pinometostat -0.021 | [6] -0.19

CHAMP1 (UniProt Q96JM3)
active: [6] -0.23
inactive: IRAK-1-4 Inhibitor I 0.047 | ibrutinib 0.066 | [1] -0.207 | ralimetinib 0.033 | [2] -0.036 | [3] -0.047 | [4] -0.015 | pinometostat 0.034

CHMP5 (UniProt Q9NZZ3)
inactive: IRAK-1-4 Inhibitor I 0.047 | ibrutinib -0.012 | [1] 0.048 | ralimetinib -0.103 | [2] 0.002 | [3] 0.001 | [4] -0.05 | pinometostat -0.048 | [5] 0.017 | [6] -0.031

CDK11B (UniProt P21127)
inactive: IRAK-1-4 Inhibitor I -0.151 | ibrutinib -0.026 | ralimetinib 0.04 | [2] -0.006 | [3] -0.116 | [4] 0.076 | pinometostat -0.11
active: [1] 2.34 | [6] -0.366

CELF2 isoform 3 (UniProt O95319)
active: [6] 0.418
inactive: IRAK-1-4 Inhibitor I 0.009 | ibrutinib -0.022 | [1] 0.009 | ralimetinib 0.055 | [2] -0.003 | [3] -0.015 | [4] 0.249 | pinometostat -0.047

CHD6 (UniProt Q8TD26)
inactive: IRAK-1-4 Inhibitor I -0.008 | ibrutinib 0.095 | [1] 0.308 | ralimetinib -0.046 | [2] 0.446 | [3] 0.253 | [4] 0.006 | pinometostat 0.101 | [5] -0.409 | [6] -0.305

CEP44 (UniProt Q9C0F1)
inactive: IRAK-1-4 Inhibitor I -0.063 | ibrutinib -0.001 | [1] -0.097 | ralimetinib -0.013 | [2] -0.182 | [3] -0.068 | [4] 0.097 | pinometostat 0.208 | [5] -0.013 | [6] -0.007

CHD4 isoform 2 (UniProt Q14839)
active: [3] -0.313
inactive: IRAK-1-4 Inhibitor I -0.198 | ibrutinib -0.106 | [1] -0.215 | ralimetinib 0.112 | [2] -0.067 | [4] 0.045 | pinometostat 0.07 | [6] -0.057

CDK12 (UniProt Q9NYV4)
inactive: IRAK-1-4 Inhibitor I -0.179 | ibrutinib 0.008 | [1] -0.566 | ralimetinib 0.138 | [2] 0.067 | [3] -0.211 | [4] 0.006 | pinometostat 0.399 | [6] -0.014

CDK6 (UniProt Q00534)
inactive: IRAK-1-4 Inhibitor I -0.014 | ibrutinib 0.031 | [1] 0.107 | ralimetinib 0.009 | [2] -0.009 | [3] -0.026 | [4] 0.086 | pinometostat 0.062 | [6] -0.019

CDK9 isoform 2 (UniProt P50750)
inactive: IRAK-1-4 Inhibitor I -0.02 | ibrutinib -0.017 | [1] 0.233 | ralimetinib -0.008 | [2] 0 | [3] -0.113 | [4] 0.044 | pinometostat 0.157 | [6] -0.144

CDK5 (UniProt Q00535)
inactive: IRAK-1-4 Inhibitor I 0.008 | ibrutinib -0.009 | [1] 0.038 | ralimetinib 0.032 | [2] -0.07 | [3] -0.021 | [4] 0.043 | pinometostat 0.024 | [6] 0.028

CFL2 (UniProt Q9Y281)
inactive: IRAK-1-4 Inhibitor I 0.073 | ibrutinib -0.042 | [1] 0.048 | ralimetinib -0.06 | [2] 0.032 | [3] 0.076 | [4] -0.018 | pinometostat -0.046 | [5] -0.014 | [6] -0.042

CERS2 (UniProt Q96G23)
inactive: IRAK-1-4 Inhibitor I 0.06 | ibrutinib -0.013 | [1] 0.125 | ralimetinib -0.026 | [2] -0.176 | [4] 0.034 | pinometostat 0.042 | [6] -0.04
active: [3] -0.425
